PubChem BioAssay AID504764 – Drosophila RNAi Screening Center – 2011

- Test: 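Knock-downs that raise or lower a Notch target reporter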 (primary screen)
- Cell system: Drosophila Kc167 cells
- Reagents: long dsRNA against Drosophila genes
- Timing: about 5 days (4 days dsRNA, then 24 h after transfection)
- Conditions: transfection of constitutively active membrane-tethered Notch lacking the extracellular domain, read 24 h later
- Measurement: 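Light from a Notch-responsive E(spl)m3 luciferase reporter under active Notch, with control-promoter and no-Notch reporter wells to normalise; raw counts from paired wells a and b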
- Scale: induced reporter light, run 1, well a and induced reporter light, run 1, well b: higher = more light from the Notch target reporter with active Notch; control promoter light, run 1, well a and control promoter light, run 1, well b: higher = more light from the viral control promoter (cell number, transfection, viability); uninduced reporter light, run 1, well a: higher = more light from the Notch target reporter without active Notch
- Hit rule: 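Hit if the duplicate-averaged log2 ratio of induced to control-promoter light gives a plate-wise z beyond ±2, or induced to uninduced beyond ±1.8; weak-control or discordant-duplicate wells dropped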
- Calls: active = modifier hit (raised or lowered Notch signal); inactive = not a hit
In all, the deposit lists about 22,000 reagents; shown is a random part of those with a known target gene and a result. Over the whole deposit, 403 (1.9%) were called active. 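Unnormalised raw counts per well; ratio z-scores behind the hit calls and whether each hit raises or lowers signal are not deposited.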 A plus sign joins genes that one reagent is predicted to hit. No sequences are given here. The record does not give: the amount of reagent.

| gene | DRSC id | induced reporter light, run 1, well a | induced reporter light, run 1, well b | control promoter light, run 1, well a | control promoter light, run 1, well b | uninduced reporter light, run 1, well a | Outcome |
| --- | --- | --- | --- | --- | --- | --- | --- |
| Cpr62Bb (Cuticular protein 62Bb) | DRSC08404 | 1.21e5 | 1.32e5 | 1.50e5 | 1.30e5 | 6160 | inactive |
| GstE13 (Glutathione S transferase E13) | DRSC06083 | 1.62e5 | 2.01e5 | 1.89e5 | 2.05e5 | 12710 | inactive |
| CG11398 | DRSC18625 | 93345 | 93135 | 1.55e5 | 1.65e5 | 7442 | inactive |
| Hsc70-4 (Heat shock protein 70 cognate 4) | DRSC16711 | 34130 | 27115 | 26370 | 34645 | 2900 | inactive |
| CG43740 | DRSC17994 | 83645 | 87075 | 1.15e5 | 86120 | 5405 | inactive |
| RpS17 (Ribosomal protein S17) | DRSC11271 | 35685 | 44835 | 59335 | 45130 | 1185 | active |
| CG31126 | DRSC14623 | 2.09e5 | 1.57e5 | 2.44e5 | 2.36e5 | 16630 | inactive |
| pwn (pawn) | DRSC06035 | 2.25e5 | 1.96e5 | 2.50e5 | 2.32e5 | 19280 | inactive |
| CG14546 | DRSC14890 | 1.38e5 | 1.59e5 | 1.75e5 | 1.69e5 | 10760 | inactive |
| alpha-Est9 (alpha-Esterase-9) | DRSC12621 | 78125 | 94830 | 89350 | 65775 | 6595 | inactive |
| sphe (spheroide) | DRSC20203 | 1.45e5 | 1.53e5 | 1.27e5 | 75295 | 9055 | inactive |
| onecut | DRSC17175 | 1.07e5 | 1.26e5 | 2.20e5 | 2.30e5 | 8775 | inactive |
| CycH (Cyclin H) | DRSC11861 | 1.21e5 | 1.26e5 | 1.19e5 | 1.13e5 | 7755 | inactive |
| CG30037 | DRSC07305 | 85950 | 89400 | 1.21e5 | 1.06e5 | 8805 | inactive |
| CG7142 | DRSC16204 | 1.89e5 | 1.59e5 | 2.06e5 | 2.00e5 | 12135 | inactive |
| CG34433 | DRSC15077 | 1.28e5 | 1.22e5 | 1.89e5 | 2.01e5 | 12605 | inactive |
| CG43345 | DRSC03164 | 1.75e5 | 1.70e5 | 1.57e5 | 1.71e5 | 15015 | inactive |
| 7SLRNA:CR42652 + 7SLRNA:CR32864 | DRSC22968 | – | – | – | – | – | active |
| Sirt2 (Sirtuin 2) | DRSC15714 | 1.85e5 | 1.55e5 | 1.64e5 | 1.72e5 | 11470 | inactive |
| CG12702 | DRSC19487 | 75160 | 79435 | 70895 | 85970 | 8805 | inactive |

An excerpt taken from the entries so far, as a working copy:
| gene | DRSC id | induced reporter light, run 1, well a | induced reporter light, run 1, well b | control promoter light, run 1, well a | control promoter light, run 1, well b | uninduced reporter light, run 1, well a | Outcome |
| --- | --- | --- | --- | --- | --- | --- | --- |
| RpS17 (Ribosomal protein S17) | DRSC11271 | 35685 | 44835 | 59335 | 45130 | 1185 | active |
| CG31126 | DRSC14623 | 2.09e5 | 1.57e5 | 2.44e5 | 2.36e5 | 16630 | inactive |
